Data: the supplement of paper PMC12889115
This is one part of the list. Values are raw readings; no control value is given beside them.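 First-pass screen: polymyxin B was added at a level that permeabilizes the Salmonella outer membrane while sparing the inner membrane. DMSO wells, with and without polymyxin B, defined maximum growth. Because plates differed from one another, each plate's data were ranked separately and the compounds with the lowest OD600 were carried forward as hits.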

Tested on: Salmonella enterica serovar Typhimurium SL1344
Experiment: bacterial growth OD600 after 18 h with compound and polymyxin B; higher = more bacterial growth (less inhibition)
Conditions: 50 µM, Mueller-Hinton broth

CCC1CN(Cc2coc3ccccc3c2=O)Cc2cc(OC)ccc2O1 (stereo not given)
bacterial growth OD600 (polymyxin B 0.75 µg/mL): 0.677

Cc1ccccc1-c1cnc(-c2ccncc2)nc1C1CCCN(Cc2ccc(F)cc2)C1 (stereo not given)
bacterial growth OD600 (polymyxin B 0.75 µg/mL): 0.056

CCOC(=O)N1CCC(NC2CCN(c3ccc(C(=O)NCc4ccccc4F)cc3)CC2)CC1
bacterial growth OD600 (polymyxin B 0.75 µg/mL): 0.864

O=C(NCCc1cscn1)c1cc(COc2cccc(F)c2)[nH]n1
bacterial growth OD600 (polymyxin B 1 µg/mL): 0.992

COc1ccc(C(=O)NC2CC2)c(OC2CCN(Cc3cnc(SC)nc3)CC2)c1
bacterial growth OD600 (polymyxin B 1 µg/mL): 0.974

CN(CCc1ccccn1)C(=O)c1cc(NC(=O)CC2CCCC2)cc2nc(C3CCCO3)n(C)c12 (stereo not given)
bacterial growth OD600 (polymyxin B 0.75 µg/mL): 0.814

COc1cccc(-c2ccc(NC(=O)C3CCCN(CC4CC4)C3)cc2)c1 (stereo not given)
bacterial growth OD600 (polymyxin B 1 µg/mL): 0.717

Cc1cc(C)n(CCNC(=O)C2CCC(=O)N(Cc3ccc(Cl)cc3)C2)n1 (stereo not given)
bacterial growth OD600 (polymyxin B 1 µg/mL): 0.932

O=C(NCc1cccc(Cl)c1)C1CCC(=O)N(C2CC2)C1 (stereo not given)
bacterial growth OD600 (polymyxin B 1 µg/mL): 0.865

CN(Cc1cc(C2CC2)[nH]n1)C(=O)c1cc(COc2cccc3cnccc23)on1
bacterial growth OD600 (polymyxin B 1 µg/mL): 0.893

CCN(C)C(=O)C1CCCN(c2nc(-c3ccccc3)nc3c2CCC3)C1 (stereo not given)
bacterial growth OD600 (polymyxin B 1 µg/mL): 0.531

CC(C)(CO)NC(=O)c1ccc2nc(Cc3cccc(Cl)c3)oc2c1
bacterial growth OD600 (polymyxin B 1 µg/mL): 0.847

O=C(c1cccc(F)c1F)N1CCOc2ccc(CN3CCN(c4ccccn4)CC3)cc2C1
bacterial growth OD600 (polymyxin B 0.75 µg/mL): 0.817

CC(=O)NCCC(=O)N1CCCC1C(=O)Nc1cccc(-n2cccn2)c1 (stereo not given)
bacterial growth OD600 (polymyxin B 1 µg/mL): 1.05

COc1ccccc1CN1CCC(C(Cc2ccccc2F)N(C)C(=O)c2ccoc2C)CC1 (stereo not given)
bacterial growth OD600 (polymyxin B 0.75 µg/mL): 1.03

COc1ccc(OC2CCN(C3CCCC3)CC2)c(C(=O)NCCc2cscn2)c1
bacterial growth OD600 (polymyxin B 0.75 µg/mL): 0.772

COc1cccc(OCc2nc(C(=O)N(C)Cc3cccnc3)co2)c1
bacterial growth OD600 (polymyxin B 1 µg/mL): 0.851

Cc1occc1C(=O)N(C)C(Cc1ccccc1)C1CCN(C(=O)c2ccc3c(c2)no[n+]3[O-])CC1 (stereo not given)
bacterial growth OD600 (polymyxin B 0.75 µg/mL): 0.243

O=C(c1ccc(N2CCC[C@H]2CO)nc1)N1CCC(CCn2cccn2)CC1
bacterial growth OD600 (polymyxin B 0.75 µg/mL): 0.916

COCCN1C(=O)CC(CC(=O)N2CCCC2c2nc3ccccc3s2)(c2ccccc2F)C1=O (stereo not given)
bacterial growth OD600 (polymyxin B 0.75 µg/mL): 0.813
